At least one compound was matched to its structure with a doubt left. Some entries share one result that the patent states for a list of compounds.
How the values were obtained:
[1] = Minipig intraduodenal (id) bioavailability of oil formulations versus iv parent complex; assay type: in vivo, Gottingen minipig; details: measured in mini-pigs; oil-based formulations (summary of Table I)
Method: Compounds were screened for oral bioavailability by injecting the formulated prodrugs directly into the duodenum (intraduodenal or id administration) of the minipig test subjects, thus bypassing the acidic environment of the stomach and thereby eliminating potentially misleading oral bioavailability results that could arise from alteration of the test article drug in the acid environment of the stomach.
The studies were conducted at Xenometrics LLC (Stillwell, Kans.) and the id bioavailability was determined using various axial ligand derivative complexes of GC4419, GC4444, GC4403 and GC4401. […] The following formula is then used to calculate the % oral bioavailability via intestinal absorption of the test article drug complex:
% Oral Bioavailability=AUC0->24 h(id)×(1/dose (mg/kg))÷AUC0->24 hr (iv)*
*Where the iv dose is 1 mg of test article drug per kilogram body weight of the mini-pig, and the dose administered id is 10 mg of test article drug per kg body weight of the mini-pig.
Male Gottingen minipigs (4-5 mo old, 9-12 kg weight) were purchased from Marshall BioResources and housed at Xenometrics. […] The concentration of the parent manganese pentaaza macrocylic ring complex (independent of the composition of the axial ligands) was measured in plasma using a validated HPLC/MS/MS method that is linear between 50 ng/mL and 20,000 ng/mL. […]

[2] = Rat indomethacin model of intestinal inflammation (Crohn's Disease); assay type: in vivo, Female Lewis rats; details: SC 0.1 mg/kg, days 0-3; compared to IP or ID vehicle treated animals
Method: A study was conducted to determine the potential efficacy of GC4403 delivered locally to the intestine in a model of intestinal inflammation (Crohn's Disease) induced by the administration of indomethacin. Female Lewis rats received cannulae surgically implanted in the duodenum with the opposite end exteriorized, and were allowed to recover. The cannulae enabled the direct injection of GC4403 or vehicle into the duodenum (intraduodenal or ID dosing) in these animals; however, uncannulated female Lewis rats were used for dosing groups not receiving ID dosing. Rats were administered indomethacin on experimental days 0 and 1 (9 mg/kg/d; subcutaneously) to induce lesions similar to those occurring in Crohn's disease in the small intestine (SI). The therapeutic interventions outlined in Table II were administered in 9 dosing groups of 10 (IV) or 12 (ID) animals each on days 0 through 3:
The rats were sacrificed and necropsied on day 4, and 10 cm sections from the middle portion of the SI (jejunum) were weighed and examined by histopathology for inflammation. The weight of a 10 cm section serves as a surrogate marker for comparing inflammation and edema across the dosing groups.

Row | SMILES | systemic oral bioavailability [1] | jejunal score [2] | jejunal weight [2]
1 | [Cl][Mn][Cl].c1cc2nc(c1)CN[C@H]1CCCC[C@@H]1NCCN[C@H]1CCCC[C@@H]1NC2 [GC4419] | below 20% |  | 
2 | C[C@@H]1C[C@H]2[C@@H]3CCC4=CC(=O)C=C[C@]4(C)[C@@]3(F)[C@@H](O)C[C@]2(C)[C@@]1(O)C(=O)CO [dexamethasone, reference compound] |  | reduced | reduced

Source: patent US20210361701A1, “PENTAAZA MACROCYCLIC RING COMPLEXES FOR LOCAL DELIVERY” (Galera Labs, LLC, priority 2017, published 2021)
